Data as given in patent publication US20250381276A1, “SMALL MOLECULE CONJUGATED CHARGE-ALTERING RELEASABLE TRANSPORTERS FOR NUCLEIC ACID DELIVERY” (The Board of Trustees of the Leland Stanford Junior …, priority 2022, published 2025).
At least one structure is not confirmed: it was looked up by name or label, or the drawing left a doubt.

Test system: peripheral blood lymphocytes
Test: Lymphocyte depletion assay (peripheral blood T and B cells)
Format: in vivo, BALB/c mice
Conditions: single i.v. dose, 24 hours vs baseline; FTY720 12.9 μg, mRNA 7.5 μg/mouse
Experimental: For in vivo administration, CART formulations were prepared adding 18.75 μg of mRNA (18.75 uL of a 1 mg/mL stock) to 205 uL of PBS (pH 5.5) and to this 26.22 uL of CART (from a 2 mmol/L stock in DMSO) were added and mixed for 20 seconds. A total of 100 uL of this formulation was administered i.v. into the tail vein of each mouse, injecting two mice at a time per each treatment group and resulting in a final mRNA dose of 7.5 ug/mouse. CART formulations were injected immediately after mixing (within 20 s).
Blood was drawn from the submandibular vein of the mice immediately before and 24 hours after treatment with Fluc mRNA-CART complexes prepared and administered as above. In both cases approximately 1 mL of venous blood was collected per mouse into FACS tubes pre-filled with 500 μL of Ca^2+-EDTA. […]
One of the potential benefits of functionalizing an mRNA delivery vehicle with a small molecule is to exploit the biological properties of the small molecule for therapeutic purposes. […] Before treatment, mice were bled to measure the baseline levels of circulating T cells (CD3+) and B cells (B220+) calculated through flow cytometry as a percentage of the total peripheral blood lymphocytes. The mice were then bled 24 hours after treatment and the levels of peripheral T and B lymphocytes were measured again (FIG. 5). […]

For `CCCCCCCCc1ccc(CCC(N)(CO)CO)cc1` [FTY720, fingolimod], which “Change in the percentage of circulating B cells (B220+)” value is on record?
Its value is “increase”.
